# From patent US20050025822A1, “Method of pulmonary administration of an agent” (priority 2003, published 2005)
# Tested on: NR8383 rat alveolar macrophages
# Test: In vitro incubation of liposomes with rat alveolar macrophages (ciprofloxacin uptake)
# Type: cell-based
# Conditions: 0.5 mg/mL drug, 4 hours, 37° C.
# Procedure: One of the key components in an inflammatory response in the lung is the activation of macrophages, where resident macrophages are a first line of cellular defense. An in vitro study was conducted to evaluate the extent of macrophage uptake of liposome formulation nos. […] As described in Example 6, rat alveolar macrophages were grown in culture. Cells were placed in a test tube along with liposome formulation no. […] 1 (diamonds), 2 (x symbols), 3 (triangles), and 4 (squares) is graphed.
# NR8383 cell lines (ATCC) were established to provide a homogeneous and continuous source of responsive alveolar macrophages to study macrophage-related activity. NR8383 was obtained from ATCC as a continuous culture of rat alveolar macrophages. The original culture was obtained from bronchoalveolar lavages from female Sprague-Dawley rats. […] The continuous cell line was subcultured in Ham's F12 media containing 15% FBS (Gibco), 2 mM L-Glutamine (Gibco) and 100 U/100 μg Penicillin/streptomycin (Sigma).
# NR8383 cells growing in log-phase were prepared in Ham's F12 media in the absence of serum at a concentration of 1×10^6 cells/mL. […] The lipid concentration ranged between 0.15-0.25 mg/mL total lipid. Cells were incubated for 4 hours at 37° C. and 5% CO2 with each tube lying on the side to maximize surface area. […]
smiles,measurement,value
"O=C(O)c1cn(C2CC2)c2cc(N3CCNCC3)c(F)cc2c1=O [free ciprofloxacin, ciprofloxacin]",ciprofloxacin uptake into macrophages (in words),higher than for any of the liposomal formulations
